Laboratory results as given in doi:10.1101/2025.06.13.659557.
No constants are given. Whether binding was seen depends on the method and setting. Binding seen in cells or lysates may run through a third protein. Some binding calls cover weakened binding; strength is not graded here.

By UniProt entry, the sequences of proteins in these tests, tags left out.
UniProt Q96KP1: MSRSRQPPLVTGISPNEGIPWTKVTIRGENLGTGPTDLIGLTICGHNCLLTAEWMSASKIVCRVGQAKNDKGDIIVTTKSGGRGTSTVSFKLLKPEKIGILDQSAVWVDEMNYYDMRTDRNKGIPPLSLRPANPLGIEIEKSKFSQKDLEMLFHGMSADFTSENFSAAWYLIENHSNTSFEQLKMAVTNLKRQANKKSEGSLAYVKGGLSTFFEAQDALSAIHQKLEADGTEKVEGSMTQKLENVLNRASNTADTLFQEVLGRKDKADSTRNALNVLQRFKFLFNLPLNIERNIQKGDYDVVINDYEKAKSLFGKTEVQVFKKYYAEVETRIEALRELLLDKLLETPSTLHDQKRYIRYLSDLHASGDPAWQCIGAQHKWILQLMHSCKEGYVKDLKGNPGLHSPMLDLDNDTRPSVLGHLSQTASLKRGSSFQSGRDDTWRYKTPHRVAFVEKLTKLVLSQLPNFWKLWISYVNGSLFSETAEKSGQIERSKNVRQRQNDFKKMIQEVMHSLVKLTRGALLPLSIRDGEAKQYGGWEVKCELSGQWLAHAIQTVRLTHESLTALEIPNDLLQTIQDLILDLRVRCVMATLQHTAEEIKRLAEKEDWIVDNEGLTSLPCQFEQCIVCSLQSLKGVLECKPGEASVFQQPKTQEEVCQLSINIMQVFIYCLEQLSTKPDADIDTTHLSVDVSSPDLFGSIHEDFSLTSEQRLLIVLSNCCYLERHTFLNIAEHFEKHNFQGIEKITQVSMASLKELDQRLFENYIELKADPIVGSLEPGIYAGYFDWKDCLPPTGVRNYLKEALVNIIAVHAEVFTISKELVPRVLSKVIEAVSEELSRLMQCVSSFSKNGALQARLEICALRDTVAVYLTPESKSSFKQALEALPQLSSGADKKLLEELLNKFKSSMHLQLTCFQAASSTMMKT

Target: T1, mCherry-RalB (UniProt P11234)
T1 sequence: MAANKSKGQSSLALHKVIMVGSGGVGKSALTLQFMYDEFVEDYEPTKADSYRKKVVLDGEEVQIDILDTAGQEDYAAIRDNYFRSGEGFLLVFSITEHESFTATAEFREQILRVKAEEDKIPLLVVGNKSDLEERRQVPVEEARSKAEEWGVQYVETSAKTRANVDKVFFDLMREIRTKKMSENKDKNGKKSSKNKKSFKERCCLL
Assay: co-IP

For “Sec5-NanoLuc (from UniProt Q96KP1 1-924)”, the binding was “binds”.
